This is an account of results in paper PMC5363644.

Amino acid sequences for entries named in this document (tags omitted).
UniProt Q00987: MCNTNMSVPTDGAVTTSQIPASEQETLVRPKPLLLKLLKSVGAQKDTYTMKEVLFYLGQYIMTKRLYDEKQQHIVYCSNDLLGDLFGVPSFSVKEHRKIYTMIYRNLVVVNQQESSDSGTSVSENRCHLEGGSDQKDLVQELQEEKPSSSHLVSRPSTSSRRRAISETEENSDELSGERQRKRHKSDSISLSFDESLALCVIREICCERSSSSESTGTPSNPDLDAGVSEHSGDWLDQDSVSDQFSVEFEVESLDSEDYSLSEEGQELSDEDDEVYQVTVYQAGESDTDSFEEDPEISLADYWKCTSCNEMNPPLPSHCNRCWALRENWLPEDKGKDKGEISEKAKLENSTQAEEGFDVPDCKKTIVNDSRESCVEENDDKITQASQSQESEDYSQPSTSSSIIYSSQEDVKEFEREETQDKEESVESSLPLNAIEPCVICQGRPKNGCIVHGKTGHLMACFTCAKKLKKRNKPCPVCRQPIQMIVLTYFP

Results are given in words; binding and its absence hold for the method and conditions named. In cells and extracts the contact can be indirect. Some binding calls cover weakened binding; strength is not graded here.

Experiment [1] addresses p53, endogenous (human (endogenous in HeLa and HCT-116)) (UniProt P04637). In words: co-IP; endogenous proteins; HeLa or HCT-116 lysates in NP-40 lysis buffer (50 mM Tris-HCl pH 7.4, 0.5% NP-40, 150 mM NaCl); 2 ug antibody overnight at 4 C, protein A/G-agarose; immunoblotting. A general note: In western blotting, separated proteins are transferred to a membrane and probed.
Experiment [2] deals with M2-type pyruvate kinase (PKM2), endogenous (human (endogenous in HeLa and HCT-116)) (UniProt P14618). The description is as above.
Another experiment addresses GST-PKM2 fusion protein (UniProt P14618). In words: pull-down; purified GST-PKM2 coupled to GSH-Sepharose incubated with HeLa or HCT-116 cell lysates; three washes; retained proteins blotted; only the target purified.

Turning to “M2-type pyruvate kinase (PKM2), endogenous (from UniProt P14618 1-531) (enzyme)”, the binding result in experiment [1] was “binds”. Consider “MDM2 (mouse double minute-2), endogenous (from UniProt Q00987 1-491) (enzyme)”, for which the binding result (in experiment [2]; with GST-PKM2 fusion protein) was “binds” in each case. As for “p53, endogenous (from UniProt P04637 1-393)”, the binding entry (in experiment [2]; with GST-PKM2 fusion protein) was “binds” each time.
